{"source": "patent US7700584B2", "about": "(Hangzhou Minsheng Pharmaceuticals Co., Ltd., priority 2004, dated 2010)", "tested_on": "mouse grafted uterine cervix cancer U14", "assay": "Activity against mouse grafted uterine cervix cancer U14", "format": "in vivo, Kunming mice", "experimental": "The experiments were performed according to “Guideline for New Drugs (Western medicines) in Pre-clinical Stages” issued by Bureau of Drug Policy & Administration of the People's Republic of China, and the relevant methods in “Methodology of Pharmaceutical Experiments”, Xu Shuyun et al. ed. 120 male Kunming mice weighting […] were allowed to grow 3 days. No abnormality was observed. The mice were routinely inoculated in oxter with mouse sarcoma S-180, and weighted 4 hrs. after inoculation. The mice were randomly divided into 12 groups, 10 mice/group. Group 1 was given 0.3 ml of physiological saline as negative control; Group 2 was given 5-FU as positive control, 0.6 mg/mouse; Group 3 was given hydroxycamptothecine as positive control, 0.02 mg/mouse. Groups 4, 5 and 6 were injected with 10% Compound 6, 0.4 ml/mouse, 0.2 ml/mouse, and 0.1 ml/mouse, respectively. Groups 7, 8 and 9 were injected with 10% Compound 8, 0.4 ml/mouse, 0.2 ml/mouse, and 0.1 ml/mouse, respectively. Groups 10, 11, and 12 were injected with 10% Compound 20, 0.4 ml/mouse, 0.2 ml/mouse, and 0.1 ml/mouse, respectively. The tested compounds were administered on the next day after inoculation, once a day on alternate days, 6 doses totally administered. On the next day after the end dose, the mice were weighed and sacrificed. After the tumor was excised, body weight and tumor weight were recorded. […]", "note": "Counter-ions that a name gives are not always drawn. Some of these results come from one statement about several compounds together."}
{"smiles": "CC(C)C1CC23OC1(O)C/C(=C\\Nc1ccc(O)cc1)C2CCC3C", "note": "(centres unmarked) [Compound 6, Curcumol p-hydroxy aniline hydrochloride]", "values": [{"measurement": "inhibition rate against mouse grafted uterine cervix cancer U14", "setting": "concentration above 20 mg/kg", "value": "above 50%"}, {"measurement": "inhibition rate against mouse grafted uterine cervix cancer U14", "setting": "concentration above 40 mg/kg", "value": "above 70%"}]}
